Results: patent US7985536B2, “Method for regulating NO production in an isolated organ or tissue during warm perfusion” (priority 1999, dated 2011)
At least one structure is not confirmed: it was looked up by name or label, or the drawing left a doubt.

Legend:
canine kidneys [1] = assay: Endothelial-dependent vasodilation by acetylcholine in perfused canine kidneys; conditions: acetylcholine 1.0, 10.0 or 100 mg; kidneys perfused with RPMI medium
Procedure: Canine kidneys were tested for the ability to produce NO by induction with acetylcholine at a concentration of 1.0, 10.0 or 100 mg. The acetylcholine was administered to the perfusion path of kidneys using the solution and process of this invention and also in control kidneys that were perfused with RPMI medium alone.

canine kidneys [2] = assay: Nitrate accumulation and acetylcholine vasodilation after 30 minutes warm ischemia and 18 hours perfusion; conditions: acetylcholine up to 100 mg; hypothermic perfusion (Group 2)

`CC(=O)OCC[N+](C)(C)C` [acetylcholine] was tested, and the vasodilation (canine kidneys [1]) was “no corresponding vasodilation” and the “reduction in the mean arterial pressures” value (canine kidneys [2]) was “did not result in significant reduction”.
